# Laboratory results taken from US20180207228A1, “PEPTIDE COMBINATIONS AND USES THEREOF FOR TREATING GRASS ALLERGY” (ALK-Abelló A/S, priority 2015, published 2018).
# Where no end group is shown, it is not given here.
# System: purified class II MHC molecules
# Test: Competitive MHC class II binding assay (IC50, measured HLA coverage)
# Design: species or system human
# Conditions: worldwide population, binding = IC50 below 300 nM
row,Compound,Measured binding coverage 25 alleles [%]
1,"CC[C@H](C)[C@H](NC(=O)[C@H](C)NC(=O)[C@H](CCCCN)NC(=O)[C@@H](NC(=O)[C@H](CC(C)C)NC(=O)[C@H](C)NC(=O)[C@H](C)NC(=O)[C@H](CCC(=O)O)NC(=O)[C@H](Cc1ccccc1)NC(=O)[C@@H](NC(=O)[C@H](C)NC(=O)[C@H](Cc1ccc(O)cc1)NC(=O)[C@H](CCCCN)NC(=O)[C@@H](NC(=O)[C@H](CCC(=O)O)NC(=O)[C@@H]1CCCN1C(=O)[C@@H](N)CCCCN)C(C)C)C(C)C)[C@@H](C)O)C(=O)N[C@H](C(=O)O)[C@@H](C)O [peptide 142, reference compound]",100
2,CC[C@H](C)[C@H](NC(=O)[C@@H](NC(=O)[C@H](CC(=O)O)NC(=O)[C@H](CCC(=O)O)NC(=O)[C@H](C)NC(=O)[C@H](CCC(=O)O)NC(=O)[C@@H](N)[C@@H](C)O)C(C)C)C(=O)N1CCC[C@H]1C(=O)N[C@@H](CCC(=O)O)C(=O)NCC(=O)N[C@@H](Cc1c[nH]c2ccccc12)C(=O)N[C@@H](CCCCN)C(=O)N[C@@H](C)C(=O)N[C@@H](CC(=O)O)C(=O)N[C@H](C(=O)N[C@@H](CO)C(=O)N[C@@H](Cc1ccc(O)cc1)C(=O)N[C@@H](CCC(=O)O)C(=O)N[C@@H](CO)C(=O)N[C@@H](CCCCN)C(=O)O)[C@@H](C)O [peptide 213],58
3,AGELELQFRRVKSKYPEGTK-OH [peptide 207],71
4,AGYTPAAPAGAEPAGKATTE-OH [peptide 228],69
5,DKYRTFVATFGAASNKAFAE-OH [peptide 231],99
6,EAKYDAYVATLSEALRIIAG-OH [peptide 233],99
7,EIKSTKPEASSGEPVVVHIT-OH [peptide 203],71
8,EQKLIEKINAGFKAALAAAA-OH [peptide 229],98
9,EWVAMTKGEGGVWTFDSEEP-OH [compound 214],81
10,FAVVDLNKMRAVWVDGKART-OH [peptide 224],99
11,FIPMKSSWGA-OH [compound 135],19
12,GDEQKLRSAGELELQFRRVK-OH [compound 206],70
13,GFGMLLRKYGIAAENVIDVK-OH [peptide 225],98
14,GFKAALAAAAGVPPADKYRT-OH [peptide 230],92
15,GRGSGSSFEIKSTKPEASSG-OH [compound 202],84
16,GSDPKKLVLNIKYTRPGDSL-OH [peptide 217],98
17,HGSEEWEPLTKKGNVWEVKS-OH [compound 218],39
18,KDKWIELKESWGAIWRIDTP-OH [peptide 210],92
19,KEDFLGSLVKEIPPRLLYAK-OH [peptide 222],100
20,KFIPTLVAAVKQAYAAKQ-OH [compound 138],99
21,KKPEVKYAVFEAALTKAIT-OH [compound 143],99

row,Compound,Measured binding coverage 25 alleles [%]
1,KSSKPLVGPFNFRFMSKGGM-OH [peptide 220],96
2,KSSWGAIWRIDPKKPLK-OH [compound 136],76
3,KYDAYVATLTEALR-OH [compound 137],98
4,LKKAVTAMSEAEK-OH [compound 139],62
5,LVKYVNGDGDVVAVDIKEKG-OH [peptide 209],85
6,PANDKFTVFEAAFNNAIKAS-OH [compound 70],99
7,PEVKYAVFEAALTKAIT-OH [compound 140],99
8,"SGKAFGAMAKKGQED-OH [compound 134, SGKAFGAMAKKGQED]",47
9,SMGDDHFWAVRGGGGESFGI-OH [peptide 226],57
10,STGGAYESYKFIPALEAAVK-OH [compound 71],99
11,TDDNEEPIAPYHFDLSGHAF-OH [peptide 204],78
12,TKKGNVWEVKSSKPLVGPFN-OH [peptide 219],91
13,TPFPHRKGVLFNIQYVNYWF-OH [peptide 227],97
14,TSKLDAAYKLAYKTAEGATP-OH [peptide 232],93
15,VATLSEALRIIAGTLEVHAV-OH [compound 67],94
16,VRYTTEGGTKTEAEDVIPEG-OH [peptide 212],40
17,WGAIWRIDTPDKLTGPFTVR-OH [peptide 211],90
18,WLDAKSTWYGKPTGAGPKDN-OH [peptide 201],47
19,YHFDLSGHAFGAMAKKGDEQ-OH [peptide 205],88
20,YIITPTNVSHIQSAVVSGRR-OH [peptide 223],99
